Reference: PMC5041083
No constants are given. Whether binding was seen depends on the method and setting. In cells and extracts the contact can be indirect. Here binding means that the protein was enriched with, or labelled near, the bait; the list need not be complete. Tags and fused reporters may be left off the sequences shown. Blank lines part the entries; values can stand above or below the molecule they belong to.

Sequences of proteins named here, by UniProt entry; tags and fusion partners are left off.
UniProt P18583: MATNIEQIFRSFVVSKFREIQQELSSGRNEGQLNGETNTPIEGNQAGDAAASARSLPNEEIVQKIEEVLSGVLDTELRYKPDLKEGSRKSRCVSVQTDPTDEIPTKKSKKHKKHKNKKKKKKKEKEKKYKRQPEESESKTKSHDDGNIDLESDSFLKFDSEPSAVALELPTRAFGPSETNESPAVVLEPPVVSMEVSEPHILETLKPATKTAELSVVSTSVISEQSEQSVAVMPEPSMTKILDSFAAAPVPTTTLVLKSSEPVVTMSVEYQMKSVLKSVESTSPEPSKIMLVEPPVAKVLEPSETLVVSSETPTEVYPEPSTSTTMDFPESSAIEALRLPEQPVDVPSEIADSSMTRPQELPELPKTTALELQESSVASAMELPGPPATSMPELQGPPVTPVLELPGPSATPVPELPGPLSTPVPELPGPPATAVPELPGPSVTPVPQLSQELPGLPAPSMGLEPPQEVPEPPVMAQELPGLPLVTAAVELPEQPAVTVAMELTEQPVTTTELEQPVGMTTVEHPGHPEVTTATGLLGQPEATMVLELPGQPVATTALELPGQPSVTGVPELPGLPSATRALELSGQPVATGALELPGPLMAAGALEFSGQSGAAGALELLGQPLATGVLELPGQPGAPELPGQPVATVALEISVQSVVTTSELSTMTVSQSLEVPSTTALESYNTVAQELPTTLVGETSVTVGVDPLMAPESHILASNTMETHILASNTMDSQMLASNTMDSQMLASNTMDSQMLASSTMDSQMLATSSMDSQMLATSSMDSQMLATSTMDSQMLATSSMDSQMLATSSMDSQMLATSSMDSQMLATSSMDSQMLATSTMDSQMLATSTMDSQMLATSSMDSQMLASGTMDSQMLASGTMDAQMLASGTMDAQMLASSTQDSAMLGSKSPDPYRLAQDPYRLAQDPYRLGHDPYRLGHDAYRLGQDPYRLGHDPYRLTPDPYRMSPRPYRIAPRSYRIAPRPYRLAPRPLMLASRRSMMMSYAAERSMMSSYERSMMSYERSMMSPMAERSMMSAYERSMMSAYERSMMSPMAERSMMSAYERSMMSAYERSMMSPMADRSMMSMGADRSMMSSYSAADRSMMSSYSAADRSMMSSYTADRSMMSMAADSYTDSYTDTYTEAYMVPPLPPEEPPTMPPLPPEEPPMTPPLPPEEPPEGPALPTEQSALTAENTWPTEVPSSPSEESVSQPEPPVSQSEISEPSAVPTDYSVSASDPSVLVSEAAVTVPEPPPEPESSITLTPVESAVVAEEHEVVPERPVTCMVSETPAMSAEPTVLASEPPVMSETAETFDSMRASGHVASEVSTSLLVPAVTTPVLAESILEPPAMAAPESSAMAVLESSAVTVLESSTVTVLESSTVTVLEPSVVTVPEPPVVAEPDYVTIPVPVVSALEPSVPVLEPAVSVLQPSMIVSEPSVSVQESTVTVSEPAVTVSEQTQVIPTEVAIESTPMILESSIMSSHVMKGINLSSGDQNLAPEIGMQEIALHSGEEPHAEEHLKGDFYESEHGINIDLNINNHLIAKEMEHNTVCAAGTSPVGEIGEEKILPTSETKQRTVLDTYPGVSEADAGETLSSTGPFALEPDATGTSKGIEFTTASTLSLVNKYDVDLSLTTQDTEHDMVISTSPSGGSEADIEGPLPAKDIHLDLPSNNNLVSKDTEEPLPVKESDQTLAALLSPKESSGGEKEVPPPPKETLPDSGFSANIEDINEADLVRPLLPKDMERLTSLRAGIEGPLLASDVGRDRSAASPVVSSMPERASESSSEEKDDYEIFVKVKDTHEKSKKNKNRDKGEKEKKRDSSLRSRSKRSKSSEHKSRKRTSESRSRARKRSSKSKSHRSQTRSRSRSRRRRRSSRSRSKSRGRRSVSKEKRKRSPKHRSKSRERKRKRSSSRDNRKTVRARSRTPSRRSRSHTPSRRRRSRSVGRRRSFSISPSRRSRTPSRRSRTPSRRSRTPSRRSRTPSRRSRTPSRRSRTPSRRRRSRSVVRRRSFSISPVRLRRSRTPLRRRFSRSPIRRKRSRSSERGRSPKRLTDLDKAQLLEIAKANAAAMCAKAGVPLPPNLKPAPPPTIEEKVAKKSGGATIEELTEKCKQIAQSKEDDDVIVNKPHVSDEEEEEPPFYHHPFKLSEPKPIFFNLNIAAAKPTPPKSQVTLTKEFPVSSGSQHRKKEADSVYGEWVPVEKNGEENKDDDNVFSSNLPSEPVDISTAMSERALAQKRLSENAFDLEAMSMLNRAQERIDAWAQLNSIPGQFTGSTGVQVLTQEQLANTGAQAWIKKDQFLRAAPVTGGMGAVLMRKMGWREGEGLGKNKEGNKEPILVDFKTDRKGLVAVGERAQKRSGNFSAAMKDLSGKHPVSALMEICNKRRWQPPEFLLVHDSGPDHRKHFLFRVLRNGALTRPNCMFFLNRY
UniProt P49674: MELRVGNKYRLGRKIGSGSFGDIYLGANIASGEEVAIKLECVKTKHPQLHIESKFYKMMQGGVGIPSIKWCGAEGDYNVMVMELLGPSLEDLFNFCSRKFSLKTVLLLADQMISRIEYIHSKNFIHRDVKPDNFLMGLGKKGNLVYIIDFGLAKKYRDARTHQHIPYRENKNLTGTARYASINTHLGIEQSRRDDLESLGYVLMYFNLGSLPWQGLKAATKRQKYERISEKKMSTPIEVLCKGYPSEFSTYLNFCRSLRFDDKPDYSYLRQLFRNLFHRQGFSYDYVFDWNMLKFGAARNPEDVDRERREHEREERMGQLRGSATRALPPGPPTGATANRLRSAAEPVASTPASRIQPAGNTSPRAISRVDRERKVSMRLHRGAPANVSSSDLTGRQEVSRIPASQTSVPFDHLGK

Key:
FAM83H-FLAG = molecular target: T1, FAM83H-FLAG (UniProt Q6ZRV2); assay: affinity purification with mass spectrometry; RKO cells transfected with FAM83H-FLAG, FAM83H-S287X-FLAG or no insert; lysate in PBS with 1% NP40; anti-FLAG antibody cross-linked to Protein G Dynabeads; in-gel digestion, LC-MS/MS; ranked by number of assigned spectra (Table S1)
T1 sequence: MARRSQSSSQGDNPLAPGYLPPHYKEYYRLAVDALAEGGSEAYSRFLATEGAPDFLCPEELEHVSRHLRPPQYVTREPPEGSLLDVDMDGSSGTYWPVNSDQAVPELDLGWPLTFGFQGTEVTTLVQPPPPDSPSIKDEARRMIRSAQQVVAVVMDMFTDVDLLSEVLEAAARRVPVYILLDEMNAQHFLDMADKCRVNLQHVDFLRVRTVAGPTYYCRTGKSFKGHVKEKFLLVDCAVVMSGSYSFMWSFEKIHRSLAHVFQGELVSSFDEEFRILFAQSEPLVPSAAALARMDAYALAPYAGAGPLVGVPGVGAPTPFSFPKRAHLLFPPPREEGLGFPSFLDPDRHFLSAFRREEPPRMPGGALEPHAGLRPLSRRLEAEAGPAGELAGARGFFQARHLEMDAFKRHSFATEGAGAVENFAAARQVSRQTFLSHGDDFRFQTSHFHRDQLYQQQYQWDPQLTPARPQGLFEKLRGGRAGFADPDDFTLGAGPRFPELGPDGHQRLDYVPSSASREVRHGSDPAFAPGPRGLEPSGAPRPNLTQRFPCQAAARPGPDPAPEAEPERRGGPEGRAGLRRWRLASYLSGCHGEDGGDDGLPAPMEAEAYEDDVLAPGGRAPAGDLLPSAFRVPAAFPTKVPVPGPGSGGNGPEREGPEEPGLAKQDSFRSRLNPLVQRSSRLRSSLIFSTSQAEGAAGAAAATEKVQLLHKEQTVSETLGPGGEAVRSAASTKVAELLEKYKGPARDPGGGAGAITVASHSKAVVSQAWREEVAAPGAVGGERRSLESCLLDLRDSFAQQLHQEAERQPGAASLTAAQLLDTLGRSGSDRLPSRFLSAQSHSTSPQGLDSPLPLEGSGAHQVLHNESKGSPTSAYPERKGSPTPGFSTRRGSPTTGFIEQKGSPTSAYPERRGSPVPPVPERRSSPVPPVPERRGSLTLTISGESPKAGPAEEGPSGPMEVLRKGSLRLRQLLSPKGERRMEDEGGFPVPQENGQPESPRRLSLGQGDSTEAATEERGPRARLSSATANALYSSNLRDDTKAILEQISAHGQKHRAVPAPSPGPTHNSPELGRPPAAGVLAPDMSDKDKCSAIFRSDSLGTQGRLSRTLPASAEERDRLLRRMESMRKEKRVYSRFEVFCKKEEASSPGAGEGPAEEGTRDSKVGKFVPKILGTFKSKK

FAM83H-S287X-FLAG = molecular target: T2, FAM83H-S287X-FLAG (UniProt Q6ZRV2); assay: as above
T2 sequence: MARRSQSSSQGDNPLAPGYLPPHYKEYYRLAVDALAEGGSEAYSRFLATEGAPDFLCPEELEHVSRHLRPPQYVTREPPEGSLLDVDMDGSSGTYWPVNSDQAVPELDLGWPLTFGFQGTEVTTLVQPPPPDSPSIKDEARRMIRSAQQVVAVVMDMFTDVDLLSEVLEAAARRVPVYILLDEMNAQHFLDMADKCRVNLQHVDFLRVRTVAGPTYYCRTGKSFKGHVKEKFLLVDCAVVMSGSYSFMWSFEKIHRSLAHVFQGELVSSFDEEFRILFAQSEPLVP

binding (FAM83H-FLAG): binds
Molecule: SON (from UniProt P18583 1-2426)

binding (FAM83H-S287X-FLAG): binds
Molecule: casein kinase 1ε (from UniProt P49674 1-416) (enzyme)

The remaining lines, values behind:

B1: hnRNP M (protein, UniProt P52272 1-730)
chain: MAAGVEAAAEVAATEIKMEEESGAPGVPSGNGAPGPKGEGERPAQNEKRKEKNIKRGGNRFEPYANPTKRYRAFITNIPFDVKWQSLKDLVKEKVGEVTYVELLMDAEGKSRGCAVVEFKMEESMKKAAEVLNKHSLSGRPLKVKEDPDGEHARRAMQKVMATTGGMGMGPGGPGMITIPPSILNNPNIPNEIIHALQAGRLGSTVFVANLDYKVGWKKLKEVFSMAGVVVRADILEDKDGKSRGIGTVTFEQSIEAVQAISMFNGQLLFDRPMHVKMDERALPKGDFFPPERPQQLPHGLGGIGMGLGPGGQPIDANHLNKGIGMGNIGPAGMGMEGIGFGINKMGGMEGPFGGGMENMGRFGSGMNMGRINEILSNALKRGEIIAKQGGGGGGGSVPGIERMGPGIDRLGGAGMERMGAGLGHGMDRVGSEIERMGLVMDRMGSVERMGSGIERMGPLGLDHMASSIERMGQTMERIGSGVERMGAGMGFGLERMAAPIDRVGQTIERMGSGVERMGPAIERMGLSMERMVPAGMGAGLERMGPVMDRMATGLERMGANNLERMGLERMGANSLERMGLERMGANSLERMGPAMGPALGAGIERMGLAMGGGGGASFDRAIEMERGNFGGSFAGSFGGAGGHAPGVARKACQIFVRNLPFDFTWKMLKDKFNECGHVLYADIKMENGKSKGCGVVKFESPEVAERACRMMNGMKLSGREIDVRIDRNA
binding (FAM83H-FLAG): binds

B2: protein unc-45 homolog A (protein, UniProt Q9H3U1 1-944)
chain: MTVSGPGTPEPRPATPGASSVEQLRKEGNELFKCGDYGGALAAYTQALGLDATPQDQAVLHRNRAACHLKLEDYDKAETEASKAIEKDGGDVKALYRRSQALEKLGRLDQAVLDLQRCVSLEPKNKVFQEALRNIGGQIQEKVRYMSSTDAKVEQMFQILLDPEEKGTEKKQKASQNLVVLAREDAGAEKIFRSNGVQLLQRLLDMGETDLMLAALRTLVGICSEHQSRTVATLSILGTRRVVSILGVESQAVSLAACHLLQVMFDALKEGVKKGFRGKEGAIIVDPARELKVLISNLLDLLTEVGVSGQGRDNALTLLIKAVPRKSLKDPNNSLTLWVIDQGLKKILEVGGSLQDPPGELAVTANSRMSASILLSKLFDDLKCDAERENFHRLCENYIKSWFEGQGLAGKLRAIQTVSCLLQGPCDAGNRALELSGVMESVIALCASEQEEEQLVAVEALIHAAGKAKRASFITANGVSLLKDLYKCSEKDSIRIRALVGLCKLGSAGGTDFSMKQFAEGSTLKLAKQCRKWLCNDQIDAGTRRWAVEGLAYLTFDADVKEEFVEDAAALKALFQLSRLEERSVLFAVASALVNCTNSYDYEEPDPKMVELAKYAKQHVPEQHPKDKPSFVRARVKKLLAAGVVSAMVCMVKTESPVLTSSCRELLSRVFLALVEEVEDRGTVVAQGGGRALIPLALEGTDVGQTKAAQALAKLTITSNPEMTFPGERIYEVVRPLVSLLHLNCSGLQNFEALMALTNLAGISERLRQKILKEKAVPMIEGYMFEEHEMIRRAATECMCNLAMSKEVQDLFEAQGNDRLKLLVLYSGEDDELLQRAAAGGLAMLTSMRPTLCSRIPQVTTHWLEILQALLLSSNQELQHRGAVVVLNMVEASREIASTLMESEMMEILSVLAKGDHSPVTRAAAACLDKAVEYGLIQPNQDGE
binding (FAM83H-FLAG): binds
